Source: the supplement of paper PMC3334620
The full ranking holds about 33,000 sequences; the median of “E-score (-0.5 to 0.5)” is about -0.015, and the highest 2% start at about 0.3. The list shows a part of the results.

target: T1, Abf1 (UniProt P14164); test: PBM E-score (8-mer binding enrichment) (E-score (-0.5 to 0.5)); higher = stronger / more preferred TF binding; conditions: protein concentration: 200 nM; construct: GST-full length
T1 sequence: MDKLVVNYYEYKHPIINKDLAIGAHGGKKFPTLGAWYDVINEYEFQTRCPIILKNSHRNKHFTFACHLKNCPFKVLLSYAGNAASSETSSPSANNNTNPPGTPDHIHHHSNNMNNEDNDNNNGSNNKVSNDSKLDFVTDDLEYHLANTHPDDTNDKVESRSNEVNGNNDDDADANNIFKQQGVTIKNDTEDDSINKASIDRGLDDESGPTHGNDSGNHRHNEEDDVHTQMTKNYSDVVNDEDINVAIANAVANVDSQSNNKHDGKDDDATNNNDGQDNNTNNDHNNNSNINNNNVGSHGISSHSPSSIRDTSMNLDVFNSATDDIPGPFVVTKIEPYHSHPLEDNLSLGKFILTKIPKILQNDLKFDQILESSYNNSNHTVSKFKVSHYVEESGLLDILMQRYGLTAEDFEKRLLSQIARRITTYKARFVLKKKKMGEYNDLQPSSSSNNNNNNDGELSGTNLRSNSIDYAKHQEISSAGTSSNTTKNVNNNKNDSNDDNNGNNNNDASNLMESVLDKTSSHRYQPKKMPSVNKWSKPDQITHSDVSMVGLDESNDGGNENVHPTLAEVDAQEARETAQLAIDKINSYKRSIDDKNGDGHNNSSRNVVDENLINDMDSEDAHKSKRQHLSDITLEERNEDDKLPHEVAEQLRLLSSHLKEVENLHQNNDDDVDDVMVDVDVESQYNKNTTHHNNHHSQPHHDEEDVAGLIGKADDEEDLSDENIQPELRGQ
Description: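 Universal 'all 10-mer' protein binding microarrays (Agilent AMADID 015681) probed with GST-tagged S. cerevisiae TFs (full-length or DBD) made by in vitro transcription/translation (PURExpress), about 100-200 nM. Bound TF was detected with fluorescent anti-GST. Each ungapped 8-mer (which stands for itself and its reverse complement) is scored by the PBM enrichment score (E-score), a modified Wilcoxon-Mann-Whitney statistic from -0.5 to +0.5, computed with the Universal PBM Analysis Suite. Scale: above 0.35 generally sequence-specific binding.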

Row | Sequence | PBM E-score
1 | AACGTAAG | 0.123
2 | CAATACTG | -0.239
3 | ATCTTTAC | 0.0694
4 | GATTCTGA | 0.188
5 | CCCTTTTC | 0.0558
6 | CTCGGGGC | -0.128
7 | AGAATCCC | 0.0491
8 | CTCCATTC | -0.216
9 | CACAGTAC | 0.00994
10 | CTACGGTC | -0.117
11 | AAATCATT | 0.296
12 | ATTGCTCC | -0.32
13 | CACAACAC | 0.041
14 | CAGTCCGG | -0.171
15 | CATAGGCG | -0.0207
16 | TACACCTA | -0.117
17 | GTATAGCA | 0.13
18 | CCTTCCAA | -0.108
19 | GAACGCTA | -0.113
20 | GCAGGGAC | -0.131
21 | GCTAGAGC | -0.143
22 | ACGGGCAT | -0.0655
23 | GGGCAAAA | 0.0367
24 | AACCCGGA | -0.358
25 | ATGCCATC | -0.0239

Row | Sequence | PBM E-score
26 | ACCTAGCC | -0.24
27 | AGGCTGTG | -0.081
28 | CCGGTGCC | -0.212
29 | GCATATAC | -0.121
30 | GTTCAGTA | 0.0167
31 | ACGCGGTA | 0.0473
32 | CCTGACCG | -0.0404
33 | CAACTCTG | -0.165
34 | AACAGACC | 0.12
35 | CTCGGATC | 0.00124
36 | CGTTATCC | 0.0408
37 | AAAGATTT | -0.013
38 | CATTCGCC | 0.0362
39 | ATCGCCGA | -0.0865
40 | AGTCCCCA | -0.169
41 | AAAAGGGT | 0.121
42 | TCGGATAA | -0.00732
43 | TCTTATAA | 0.0702
44 | CTTCGCGA | 0.00718
45 | CGGTCAGA | 0.00393
46 | CGCGTAAC | -0.0527
47 | CAGCGCTC | -0.0234
48 | TCACTCCA | 0.192
49 | ATTAAAGC | 0.0349
50 | CGTTATAA | 0.149

For reference, part of the list above.
Row | Sequence | PBM E-score
36 | CGTTATCC | 0.0408
37 | AAAGATTT | -0.013

Continuation:

Row | Sequence | PBM E-score
51 | AGCAGTTC | -0.104
52 | AAATGGAC | 0.0432
53 | TCAGGTAA | -0.00487
54 | AGGCCATC | -0.122
55 | TACGGGGA | 0.0819
56 | ATCAGCCA | -0.113
57 | CTAATGTC | 0.026
58 | ATATCCGC | 0.0461
59 | AGTTGTTC | 0.076
60 | CAAAAAGG | 0.0204
61 | AGACTGTG | -0.114
62 | GTACGGAA | 0.278
63 | CAGCCTGG | -0.181
64 | ATATCGGA | 0.228
65 | CTCCTACC | -0.206
66 | TACCCGTA | 0.0422
67 | ACCAAAAT | 0.175
68 | CATGCATC | 0.0494
69 | CGATAACG | 0.0981
70 | CAGATACA | 0.0289
71 | AGGCCAGC | -0.239
72 | GATAACGC | 0.029
73 | CTCAAGTA | -0.0147
74 | ACCCCGGC | -0.243
75 | ACCCCCCC | -0.359

Row | Sequence | PBM E-score
76 | CCTGCGGA | -0.0432
77 | TAGGTACA | 0.0831
78 | CAACATCA | 0.203
79 | ACGTTTAT | 0.203
80 | AGCAGACG | 0.0241
81 | GTCTTTGA | -0.0341
82 | CCACGATC | 0.335
83 | CGCTGCCA | -0.146
84 | AGGCGTTC | -0.191
85 | ATTCGAGC | 0.0465
86 | TATAGACA | 0.0187
87 | GTATGAAA | 0.192
88 | GGATTGAA | 0.0519
89 | GATGAGGA | 0.144
90 | ACAGGGTA | -0.0317
91 | AAGTAACG | 0.235
92 | GGGGGGGA | -0.342
93 | AAGTTAGT | 0.0432
94 | GGGGGTAA | -0.353
95 | ATGGATAG | -0.0516
96 | ATAGACAA | 0.111
97 | AGTTGCGC | 0.135
98 | GGGGACAA | -0.153
99 | AACTACTG | -0.0751
100 | CACGAGTA | 0.0993

Row | Sequence | PBM E-score
101 | TCACATGA | 0.0551
102 | GAATACGA | 0.253
103 | AACAGGGT | -0.245
104 | CCCCTGCC | -0.214
105 | ATTGGAGA | 0.141
106 | CGGTGCGA | 0.0363
107 | AATTGGAA | 0.00386
108 | CGATGCCC | -0.136
109 | CCAGACGG | -0.0274
110 | ACAACTCA | 0.0458
111 | AGAGGTTA | -0.146
112 | AATTCGAT | 0.122
113 | ACGTGGGA | 0.00847
114 | GTACTCAA | 0.0951
115 | AGGCTATC | -0.13
116 | AATAGGAA | 0.127
117 | CCGCTATA | -0.179
118 | TGCCGAAA | 0.101
119 | AATCACCG | 0.253
120 | CCAGAGAG | -0.16
121 | CGCTGGCC | -0.349
122 | GTAGCCAA | 0.047
123 | GTAGGCGA | 0.111
124 | AAACCGTT | -0.0156
125 | CGAGAGTA | -0.0361

Row | Sequence | PBM E-score
126 | AGCAGCTG | -0.14
127 | CGACAGTC | -0.0503
128 | AGTATAAG | 0.0186
129 | ATAAGATA | 0.0332
130 | CAGTGTGC | -0.2
131 | AAGACCAC | -0.349
132 | CTCATTGA | -0.0228
133 | AACTCGAT | 0.212
134 | CAGAGTGA | 0.178
135 | ACACTCCG | -0.187
136 | AGGATGGC | -0.11
137 | CTTCCTTA | -0.173
138 | CCCTGTGC | -0.273
139 | GATGTTGA | 0.0987
140 | CAAGCTGA | -0.0145
141 | CAGTTGCC | -0.153
142 | ATTATGGA | 0.0939
143 | AAATGGGT | -0.0572
144 | CAAATCTC | 0.00619
145 | CTGATCTC | 0.0271
146 | GCACAACC | -0.176
147 | ACCCTACT | -0.231
148 | AAGGGGCA | -0.275
149 | GGGGTTTA | -0.162
150 | TGCAGCAA | 0.0825

Two records picked at random from the list so far, as already listed:
Row | Sequence | PBM E-score
142 | ATTATGGA | 0.0939
145 | CTGATCTC | 0.0271

Further records

Row | Sequence | PBM E-score
151 | AGTTTCGG | -0.0424
152 | GAAACGCC | -0.0206
153 | ATGCAATG | -0.127
154 | ATCGCTGC | 0.0687
155 | GAGGCATC | -0.17
156 | CCGGGGGA | -0.348
157 | AGACAGGA | 0.123
158 | TAAAGCCA | 0.004
159 | CCAAGTCC | -0.278
160 | TCATGTCA | 0.332
161 | AAGGCGCC | 0.0722
162 | CTTAAGAA | 0.183
163 | GAGCCTGC | -0.156
164 | AAACGGAC | -0.043
165 | CATTATAC | 0.0096
166 | CTCATTCA | 0.0616
167 | GCGTTGGA | -0.126
168 | ATGAGCCC | -0.351
169 | CCAGCCTC | -0.0473
170 | ACGTCCTG | -0.307
171 | CAGAATAG | 0.018
172 | GCCCGGAA | -0.183

Look-ups from the entries so far:
In PBM E-score, AGTTTCGG shows -0.0424
In PBM E-score, CCGGGGGA shows -0.348
